About 3,700 (1.2%) of roughly 300,000 compounds were called active. Inconclusive results, whose numbers are uncertain, are shown with a selection of clear calls. Calls come from the whole dose curve; tested in HEK293 cells. Where the call is inconclusive, the potency comes from a doubtful curve fit.
Experiment: qHTS for Inhibitors of binding or entry into cells for Lassa Virus; note: nearly all actives have a fitted effect of over 50% in size
Settings: Lassa virus pseudotype entry inhibition, cell reporter; activity change, negative = inhibition: at 37.9 µM (top of the series) unless noted
For `COc1ccc(Cl)cc1C(=O)NNC(=O)COC(=O)c1ccc(Br)o1`, the “activity change, negative = inhibition” value was inactive: 15.7%.
With `CC(C)c1ccc(/C=N\NC(=O)c2ccc(Cn3cccn3)o2)cc1` the Potency was inconclusive: 12.6 µM [inhibitor, partial curve, poor fit].
With `Cc1cccc(C(=O)Nc2nc(-c3ccc(Br)cc3)ns2)c1` the “activity change, negative = inhibition” value was inactive: -7.74% [at 46.1 µM].
For `COc1ccc(/C=C2\SC(=O)N(CCNC(=O)C3CC4C=CC3C4)C2=O)cc1` (centres undefined), the Potency was inconclusive: 3.16 µM [activator, single point].
In the case of `COc1cc(C(=O)N2CCc3c([nH]c4ccccc34)C2c2ccccc2)cc(OC)c1OC` (centres undefined), the Potency is reported as inconclusive: 14.1 µM [inhibitor, partial curve, poor fit].
For `Cc1ccc(OC(=O)c2cc(=O)c3ccccc3o2)cc1`, the Potency was inconclusive: 0.708 µM [activator, full curve, poor fit].
For `O=C(N/N=C/c1ccc(O)cc1O)NC12CC3CC(CC(C3)C1)C2`, the Potency was inconclusive: 5.62 µM [inhibitor, single point].
In the case of `O=C(O)c1ccccc1C(=O)Nc1ccccc1NC(=O)c1ccccc1C(=O)O`, the “activity change, negative = inhibition” value is reported as inactive: 2.38%.
For `COc1cccc(-n2ncc3c(NN=Cc4ccc(F)cc4)ncnc32)c1`, the Potency was inconclusive: 1.58 µM [inhibitor, full curve].
For `Cc1ccc(C(=O)OCC(=O)c2ccc[nH]2)s1`, the “activity change, negative = inhibition” value was inactive: 14.7%.
With `NC(=O)c1ccccc1OCc1nc2ccccc2s1` the Potency was inconclusive: 12.6 µM [inhibitor, partial curve, poor fit].
With `Cc1ccc(S(=O)(=O)N2CCN(C(=O)CSc3ncc(C(F)(F)F)cc3Cl)CC2)cc1` the Potency was inconclusive: 35.5 µM [inhibitor, single point].
For `COc1ccc(-c2nc3c4ccccc4n(CC(=O)Nc4cc(F)ccc4F)c(=O)n3n2)cc1`, the “activity change, negative = inhibition” value was inactive: 14.1% [at 46.1 µM].
For `COC(=O)c1c(C)[nH]c(C(=O)/C=C/c2ccccc2F)c1C`, the Potency was inconclusive: 15.8 µM [inhibitor, single point].
With `O=C(CCN1CCOCC1)c1ccc(Br)cc1` the Potency was inconclusive: 35.5 µM [inhibitor, single point].
In the case of `O=C(Cc1ccc(Cl)c(Cl)c1)Nc1ccc(SC(F)F)cc1`, the Potency is reported as inconclusive: 29.1 µM [inhibitor, single point].
In the case of `CCOc1ccc(OC(=O)c2cn(-c3ccc(C)cc3)c(=O)c3ccccc23)cc1`, the Potency is reported as inconclusive: 8.91 µM [inhibitor, partial curve, poor fit].
For `O=C(Nc1nnc(-c2ccncc2)o1)c1ccc2ccccc2c1`, the “activity change, negative = inhibition” value was inactive: -23.5% [at 46.1 µM].
For `Cc1ccc(NC(=O)CN2C(=O)S/C(=C/c3ccc(O)c([N+](=O)[O-])c3)C2=O)cc1C`, the “activity change, negative = inhibition” value was inactive: 4.11%.
% is set by controls: 0 for no effect and ±100 for the full control effect; potency is the fitted concentration of half-maximal effect.
